No constants are given. Whether binding was seen depends on the method and setting. Some binding calls cover weakened binding; strength is not graded here.
Assays:
Assay in all cases: flow cytometry, Hek-293T cells expressing the mutant
[1] = biological target: T1, human CD39 mutant 10A (human) (UniProt P49961)
T1 sequence: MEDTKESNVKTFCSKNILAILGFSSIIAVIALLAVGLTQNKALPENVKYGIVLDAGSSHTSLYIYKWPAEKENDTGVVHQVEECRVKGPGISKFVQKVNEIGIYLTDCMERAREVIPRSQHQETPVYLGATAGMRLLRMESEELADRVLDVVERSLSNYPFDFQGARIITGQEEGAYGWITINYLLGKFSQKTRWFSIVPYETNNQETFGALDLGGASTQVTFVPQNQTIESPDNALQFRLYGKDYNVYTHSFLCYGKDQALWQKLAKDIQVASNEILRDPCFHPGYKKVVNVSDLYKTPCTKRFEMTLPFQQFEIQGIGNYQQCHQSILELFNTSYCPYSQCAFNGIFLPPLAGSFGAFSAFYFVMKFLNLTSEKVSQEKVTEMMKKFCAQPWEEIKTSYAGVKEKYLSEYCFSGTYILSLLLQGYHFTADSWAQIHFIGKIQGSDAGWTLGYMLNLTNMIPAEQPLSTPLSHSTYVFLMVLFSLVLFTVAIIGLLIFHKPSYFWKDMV

[2] = biological target: T2, human CD39 mutant 18 (human) (UniProt P49961)
T2 sequence: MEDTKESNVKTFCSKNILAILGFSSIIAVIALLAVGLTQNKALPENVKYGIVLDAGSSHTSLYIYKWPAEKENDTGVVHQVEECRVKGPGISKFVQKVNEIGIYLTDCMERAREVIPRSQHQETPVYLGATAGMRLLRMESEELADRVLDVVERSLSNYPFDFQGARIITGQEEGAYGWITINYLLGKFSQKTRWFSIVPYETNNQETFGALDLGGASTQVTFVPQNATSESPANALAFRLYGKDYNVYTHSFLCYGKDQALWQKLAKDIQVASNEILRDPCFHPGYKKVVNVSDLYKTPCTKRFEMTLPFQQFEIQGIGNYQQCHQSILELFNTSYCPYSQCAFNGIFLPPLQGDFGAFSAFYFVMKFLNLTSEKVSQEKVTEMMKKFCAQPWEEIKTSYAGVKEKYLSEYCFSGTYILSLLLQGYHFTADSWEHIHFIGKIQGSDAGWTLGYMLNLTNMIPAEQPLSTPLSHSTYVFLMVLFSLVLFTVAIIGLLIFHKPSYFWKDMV

[3] = biological target: T3, human CD39 mutant 4 (human) (UniProt P49961)
T3 sequence: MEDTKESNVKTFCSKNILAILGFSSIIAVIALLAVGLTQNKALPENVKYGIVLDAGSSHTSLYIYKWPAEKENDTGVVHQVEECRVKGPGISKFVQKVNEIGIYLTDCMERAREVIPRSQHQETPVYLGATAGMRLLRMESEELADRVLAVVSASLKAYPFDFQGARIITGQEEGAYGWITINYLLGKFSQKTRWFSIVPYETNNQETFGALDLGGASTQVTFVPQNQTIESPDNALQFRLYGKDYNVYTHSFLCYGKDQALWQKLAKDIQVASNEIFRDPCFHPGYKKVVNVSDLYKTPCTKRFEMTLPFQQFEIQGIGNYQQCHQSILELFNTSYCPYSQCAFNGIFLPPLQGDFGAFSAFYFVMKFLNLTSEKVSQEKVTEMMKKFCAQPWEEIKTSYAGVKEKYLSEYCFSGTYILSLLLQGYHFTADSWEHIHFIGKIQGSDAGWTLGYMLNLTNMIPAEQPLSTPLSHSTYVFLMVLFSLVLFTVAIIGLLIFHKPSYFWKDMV

[4] = biological target: T4, human CD39 mutant 6 (human) (UniProt P49961)
T4 sequence: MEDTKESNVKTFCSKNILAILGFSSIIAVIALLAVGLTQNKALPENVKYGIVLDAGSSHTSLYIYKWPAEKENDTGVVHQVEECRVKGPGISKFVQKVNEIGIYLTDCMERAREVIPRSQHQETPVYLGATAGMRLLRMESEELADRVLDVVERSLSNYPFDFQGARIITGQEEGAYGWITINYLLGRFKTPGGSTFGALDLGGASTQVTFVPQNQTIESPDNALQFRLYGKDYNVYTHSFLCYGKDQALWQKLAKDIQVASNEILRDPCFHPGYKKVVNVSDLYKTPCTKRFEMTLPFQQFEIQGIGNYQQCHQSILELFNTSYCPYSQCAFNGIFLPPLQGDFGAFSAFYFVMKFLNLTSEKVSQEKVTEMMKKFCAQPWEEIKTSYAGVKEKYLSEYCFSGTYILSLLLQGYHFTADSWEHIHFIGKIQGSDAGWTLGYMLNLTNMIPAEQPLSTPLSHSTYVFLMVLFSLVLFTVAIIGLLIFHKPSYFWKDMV

[5] = biological target: T5, human CD39 mutant 7 (human) (UniProt P49961)
T5 sequence: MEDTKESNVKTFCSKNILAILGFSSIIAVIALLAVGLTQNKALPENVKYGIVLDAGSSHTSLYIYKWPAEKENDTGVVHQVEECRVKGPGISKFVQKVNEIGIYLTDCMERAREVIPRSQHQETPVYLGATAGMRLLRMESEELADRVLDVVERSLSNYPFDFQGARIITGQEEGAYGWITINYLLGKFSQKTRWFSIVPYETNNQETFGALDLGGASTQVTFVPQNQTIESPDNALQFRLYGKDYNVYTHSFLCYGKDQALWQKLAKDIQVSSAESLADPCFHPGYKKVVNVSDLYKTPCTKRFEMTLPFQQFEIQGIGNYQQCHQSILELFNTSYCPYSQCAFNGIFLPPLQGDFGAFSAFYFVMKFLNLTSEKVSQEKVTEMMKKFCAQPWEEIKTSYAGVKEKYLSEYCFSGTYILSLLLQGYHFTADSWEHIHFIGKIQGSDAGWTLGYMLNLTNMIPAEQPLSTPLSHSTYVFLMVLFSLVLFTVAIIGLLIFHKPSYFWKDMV

Measured: binding

B1: antibody I-399 (antibody, V domains shown)
VH: PVQLQQPGAEVVMPGASVKLSCKASGYTFTSFWMNWMRQRPGQGLEWIGEIDPSDFYTNSNQRFKGKATLTVDKSSSTAYMQLSSLTSEDSAVYFCARGDFGWYFDVWGTGTSVTVSS
VL: EIVLTQSPTTMTSSPGEKITFTCSASSSINSNYLHWYQQKPGFSPKLLIYRTSNLASGVPTRFSGSGSGTSYSLTIGTMEAEDVATYYCQQGSSLPRTFGGGTKLEIK
binds: all assays above

— US20190389961A1
